# The other results are listed elsewhere or left out. The main result of the screen is listed elsewhere. These columns were measured beside it and carry no call. Most of these compounds were active or inconclusive in the main read-out, so they are no random draw. Potencies come from curve fits of mixed quality, noted in brackets.
# Test: qHTS Assay to Find Inhibitors of Chronic Active B-Cell Receptor Signaling
# Conditions: ABC-DLBCL IkBa-CBG/CBR reporter, luminescence ratio (green luciferase fused to IkBa over red control in TMD8 lymphoma cells), 4 h
# Outline: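 TMD8 human ABC-DLBCL cells with doxycycline-inducible IκBα–green luciferase fusion and unfused red luciferase, in 0.5% FBS medium; compounds up to 46 uM, 4 h at 37C. Green/red luminescence ratio, filter-overlap corrected, fitted to concentration-response curves.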
# [1] = measured here: CBR red luminescence, cell number
# [2] = measured here: IkBa-CBG green luminescence
structure (smiles),measurement,setting,value
O=C(Nc1ccccc1)c1cccc(-c2nnc(-c3ccccc3)o2)c1,AC50,[1],"0.58 µM [rising, full curve, poor fit]"
Cc1occc1C(=O)N/N=C/c1c[nH]c2ccccc12,AC50,[1],"10 µM [falling, partial curve, poor fit]"
Cc1cccc(C2NC(c3cccc(C)c3)C(C)C(=O)C2C)c1 (stereo unspecified),AC50,[1],"35.5 µM [rising, single point]"
Cn1c(=O)c2[nH]c(CNCc3ccccc3Cl)nc2n(C)c1=O,AC50,[2],"6.51 µM [falling, single point]"
COc1ccccc1-c1cc(C(=O)N2CCc3ccccc3C2)c2ccccc2n1,AC50,[2],"35.5 µM [rising, partial curve, poor fit]"
CCc1ccc(NC(=O)C(=O)NCc2ccccn2)cc1,AC50,[1],"0.251 µM [rising, full curve, poor fit]"
COc1cc(NC(=O)CCc2nnc3ccc(N4CCN(C)CC4)nn23)cc(OC)c1,AC50,[1],"35.5 µM [rising, partial curve, poor fit]"
CCOC(=O)C1(Cc2ccccc2)CCN(Cc2cnc(N3CCOCC3)s2)CC1,AC50,[1],"3.16 µM [falling, single point]"
COc1ccc(/C=N/NC(=O)CCn2c3ccccc3c3ccccc32)cc1O,AC50,[1],"16.4 µM [falling, single point]"
same,AC50,[2],"2.91 µM [falling, partial curve, poor fit]"
CCC(C)NC(=O)CCn1c(-c2ccccc2)cc(C(C)=O)c1C (stereo unspecified),AC50,[1],"8.2 µM [rising, partial curve, poor fit]"
CCOC(=O)c1ccc(Nc2nnc(C)c3ccccc23)cc1,AC50,[1],"4.47 µM [rising, full curve, poor fit]"
COCCCN1Cc2cccc(C(=O)O)c2C1=O,AC50,[1],"5.17 µM [falling, single point]"
CN(CC(=O)Nc1cc(S(=O)(=O)N2CCCCCC2)ccc1Cl)Cc1ccc2c(c1)OCO2,AC50,[1],"8.2 µM [rising, partial curve, poor fit]"
CCOC(=O)C1=C(c2ccccc2)NC(=S)NC1c1ccc(Cl)cc1 (stereo unspecified),AC50,[1],"14.1 µM [falling, single point]"
N#C/C(=C\c1ccco1)c1nc2ccccc2s1,AC50,[1],"3.66 µM [rising, partial curve, poor fit]"
CC(C)c1nc(SCC(=O)c2ccc(F)cc2)c2ccccc2n1,AC50,[1],"17.8 µM [falling, partial curve]"
same,AC50,[2],"35.5 µM [falling, single point]"
COc1cc(C)ccc1OCCOCCOc1ccc(C)cc1[N+](=O)[O-],AC50,[1],"25.9 µM [rising, single point]"
COc1ccc(N2CCN(CCCNS(=O)(=O)c3c(C)noc3/C=C/N(C)C)CC2)cc1,AC50,[1],"5.17 µM [rising, partial curve, poor fit]"
CCCn1c(CC)nc([N+](=O)[O-])c1S(=O)(=O)c1ccccc1,AC50,[1],"31.6 µM [falling, single point]"
CC(=O)/C=C\c1cn(-c2ncc(C(F)(F)F)cc2Cl)c2ccccc12,AC50,[1],"18.4 µM [falling, single point]"
Cc1cc(NC(=O)CSc2n[nH]c(CC(C)C)n2)no1,AC50,[1],"25.9 µM [falling, single point]"
CCOc1cc(-c2nccc3cc(OC)c(OC)cc23)cc(OCC)c1OCC,AC50,[1],"35.5 µM [falling, single point]"
N#CC1=C(N)Oc2cc3ccccc3cc2C1c1cccnc1 (stereo unspecified),AC50,[1],"11.2 µM [falling, partial curve]"
CCOC(=O)C(CCCOc1ccccc1)C(=O)OCC,AC50,[1],"29.1 µM [rising, single point]"
O=C(O)CC1(CC(=O)NCc2cccc(Cl)c2)CCCCC1,AC50,[1],"3.55 µM [falling, single point]"
same,AC50,[2],"3.55 µM [rising, single point]"
Cc1ccc(C)c(C(=O)O/N=C(\N)c2ccc(Br)cc2)c1,AC50,[1],"29.1 µM [rising, single point]"
COc1ccc2c(c1)OC[C@H]1[C@H]2N2C(=O)c3ccccc3NC(=O)[C@@]2(C)[C@H]1c1ccccc1,AC50,[1],"20.6 µM [falling, partial curve, poor fit]"
O=C1CCCc2c1nc(-c1ccc([N+](=O)[O-])cc1)n2O,AC50,[1],"5.62 µM [falling, full curve]"
COc1ccc(-c2nc(C)c(C(C)=O)n2O)cc1OC,AC50,[1],"10 µM [falling, partial curve]"
C[C@@H]1CC[C@H]2C(=O)N3[C@@H](CC[C@@H](C)[C@@H]3c3ccc(Br)cc3)C(=O)N2[C@H]1c1ccc(Br)cc1,AC50,[1],"16.4 µM [falling, single point]"
O=c1[nH]n(-c2ccc(Cl)cc2)c2ncccc12,AC50,[1],"35.5 µM [falling, single point]"
CN(C)/C=C\C(=C/C(=O)C(F)(F)F)Nc1ccccc1Oc1ccccc1,AC50,[1],"35.5 µM [falling, single point]"
Cc1csc(SCC(=O)Nc2ccccc2C)n1,AC50,[1],"6.51 µM [falling, partial curve, poor fit]"
CCN=C1Sc2nc3ccc(OCC)cc3cc2CN1CCOC,AC50,[1],"0.231 µM [rising, full curve, poor fit]"
N#Cc1ccc(-c2ccc(C3Nc4ccccc4C(=O)N3O)o2)cc1 (stereo unspecified),AC50,[1],"7.31 µM [falling, partial curve]"
same,AC50,[2],"11.6 µM [rising, partial curve, poor fit]"
O=[N+]([O-])c1ccc(S(=O)(=O)NCC(c2cccnc2)N2CCc3ccccc32)cc1 (stereo unspecified),AC50,[1],"9.2 µM [falling, partial curve]"
Cc1nc2sc(C(c3ccccc3)N3CCN(c4ccccc4F)CC3)c(O)n2n1 (stereo unspecified),AC50,[1],"5.17 µM [rising, partial curve]"
Cc1ccc(C(=O)NC(C)c2ccc3c(c2)OCO3)s1 (stereo unspecified),AC50,[1],"25.1 µM [rising, partial curve, poor fit]"
CCCS(=O)(=O)c1c(S(=O)(=O)CCC)c2c(N)cccn2c1C(=O)c1ccc(F)cc1,AC50,[1],"4.11 µM [falling, full curve, poor fit]"
Cc1cccc2sc(NC(=O)c3cccc(S(=O)(=O)N4CCc5ccccc54)c3)nc12,AC50,[1],"5.8 µM [falling, partial curve, poor fit]"
COc1ccc(NC(=S)N2CCNC(=O)C2CC(=O)Nc2ccc(C)cc2)cc1 (stereo unspecified),AC50,[1],"4.11 µM [rising, full curve, poor fit]"
CCN(CC)S(=O)(=O)c1ccc2[nH]cc(C(=O)NCCCN3CCCCC3C)c(=O)c2c1 (stereo unspecified),AC50,[1],"29.1 µM [rising, single point]"
same,AC50,[2],"32.6 µM [falling, partial curve, poor fit]"
CNC(=O)COC(=O)c1ccc(NS(=O)(=O)c2ccc3c(c2)OCCO3)cc1,AC50,[1],"11.2 µM [rising, partial curve, poor fit]"
C/C(=N\NC(=O)c1c[nH]c2ccccc12)c1ccco1,AC50,[1],"25.9 µM [falling, single point]"
Cc1ccc(SC(C)c2nc(-c3ccccc3)no2)cc1 (stereo unspecified),AC50,[1],"20.6 µM [rising, single point]"
O=c1[nH]cnc2c1c(-c1ccccc1)cn2-c1ccccc1,AC50,[1],"2.24 µM [falling, partial curve, poor fit]"
Cc1cccc(NC(=O)c2cc(S(=O)(=O)N3CCc4ccccc43)cn2C)c1C,AC50,[1],"35.5 µM [rising, single point]"
Cc1ccc(CCNC(=O)c2ccc3nc4ccc(Cl)cc4c(=O)n3c2)cc1,AC50,[1],"0.501 µM [falling, partial curve, poor fit]"
COc1ccc(C2C(C(C)=O)=C(O)C(=O)N2c2nccs2)cc1OC (stereo unspecified),AC50,[1],"29.1 µM [falling, single point]"
CC(=O)c1c(C)[nH]c(C(=O)OCC(=O)NNC(=O)c2ccc([N+](=O)[O-])cc2)c1C,AC50,[1],"4.11 µM [rising, full curve, poor fit]"
O=C(Nc1ccccc1Cl)Nc1cccc2cccnc12,AC50,[1],"12.6 µM [falling, partial curve, poor fit]"
O=C(COC(=O)c1ccccc1Br)Nc1ccccc1F,AC50,[1],"8.91 µM [falling, partial curve]"
Cc1csc(NC(=O)c2cc(-c3ccccc3)nc3ccccc23)n1,AC50,[1],"13 µM [falling, partial curve, poor fit]"
COc1cccc(N2CCN(c3ncnc4c3cnn4-c3ccc(C)cc3C)CC2)c1,AC50,[1],"7.94 µM [falling, partial curve, poor fit]"
CCN1C(=NCc2cccc(Cl)c2)N[C@@H](c2cccc(F)c2)C(C(=O)OC)=C1C,AC50,[1],"35.5 µM [falling, single point]"
COc1ccc(-c2nnc(SCC(=O)c3[nH]c(C)c(C(C)=O)c3C)o2)cc1,AC50,[1],"20.6 µM [rising, partial curve, poor fit]"
COc1cc(Cn2nnc3ccccc32)cc(Br)c1O,AC50,[1],"17.8 µM [rising, partial curve, poor fit]"
C/C=C/C(=O)N1CC2(CC(c3cccc(NC(=O)COc4ccc(Cl)cc4)c3)=NO2)C[C@@H]1C(N)=O (stereo partly specified),AC50,[1],"6.31 µM [falling, full curve]"
COc1ccc(-c2cn3c(C)c(C(=O)NC(C)(C)C)sc3n2)cc1,AC50,[1],"17.8 µM [falling, single point]"
O=C(CNCc1ccccn1)N1CCc2ccccc2C1,AC50,[1],"5.01 µM [rising, single point]"
O=C(NCCOc1nc(N2CCCCC2)nc(N2CCOCC2)n1)Nc1ccccc1,AC50,[1],"0.0366 µM [rising, full curve, poor fit]"

# In a second layout: results already given
structure (smiles) | measurement | setting | value
CN(CC(=O)Nc1cc(S(=O)(=O)N2CCCCCC2)ccc1Cl)Cc1ccc2c(c1)OCO2 | AC50 | [1] | 8.2 µM [rising, partial curve, poor fit]
N#Cc1ccc(-c2ccc(C3Nc4ccccc4C(=O)N3O)o2)cc1 (stereo unspecified) | AC50 | [2] | 11.6 µM [rising, partial curve, poor fit]
COc1ccc(-c2nnc(SCC(=O)c3[nH]c(C)c(C(C)=O)c3C)o2)cc1 | AC50 | [1] | 20.6 µM [rising, partial curve, poor fit]
